For this assay, the system named is Escherichia coli BW25113. Description: plate-normalized OD600 growth (mean of duplicates) (OD600 (normalized)); higher = more growth (less inhibition). Conditions: 10 µM. On the procedure:
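E. coli BW25113 in LB (100 µl, 96-well, no shaking) was exposed to 10 µM of each compound (here the ChemBridge subset of a ~30,000-member library) and grown at 37°C for 24 h or 15°C for 48 h, in duplicate. Growth was read as OD600 and the duplicate ODs were normalized across screening plates to correct plate-to-plate variation.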

In all, about 1,600 compounds were measured (“plate-normalized OD600 growth (mean of duplicates)”: median about 0.31, lowest 2% from about 0.23 on). The list shows a part of the results.

Take `Cc1c(N)cc(C(=O)O)cc1[N+](=O)[O-]`: the “plate-normalized OD600 growth” value (temperature: 15°C, 48 h) was 0.265 and the “plate-normalized OD600 growth” value (temperature: 37°C, 24 h) was 0.66.
Consider `COc1cc(CNCc2ccco2)cc(OC)c1`, for which the “plate-normalized OD600 growth” value came to 0.255 (temperature: 15°C, 48 h) and 0.624 (temperature: 37°C, 24 h).
As to `CC(=O)NC(C)(CC(=O)c1ccccc1)c1ccccc1` (configuration not stated), the “plate-normalized OD600 growth” value amounted to 0.227 (temperature: 15°C, 48 h) and 0.639 (temperature: 37°C, 24 h).
Consider `CC(C)=CCC/C(C)=C/CN1CCCN(C)CC1`, for which the “plate-normalized OD600 growth” value by setting is: (temperature: 15°C, 48 h) 0.234; (temperature: 37°C, 24 h) 0.63.
For the molecule `CC(=O)N1CCCC1(C(=O)O)c1ccccc1` (configuration not stated), the “plate-normalized OD600 growth” value by setting is: (temperature: 15°C, 48 h) 0.259; (temperature: 37°C, 24 h) 0.629.
With `O=c1c2c3c(sc2nc2n1CCCCC2)CCCCC3`, the “plate-normalized OD600 growth” value runs as follows: (temperature: 15°C, 48 h) 0.265; (temperature: 37°C, 24 h) 0.618.
Regarding `COc1ccc2c(c1OC)C(=O)N(c1ccc(I)cc1)C2`, the “plate-normalized OD600 growth” value (temperature: 15°C, 48 h) worked out at 0.266 and the “plate-normalized OD600 growth” value (temperature: 37°C, 24 h) amounted to 0.632.
Turning to `COc1ccc(NC(=O)CSc2nnc(N)s2)cc1`, the “plate-normalized OD600 growth” value is, setting by setting: (temperature: 15°C, 48 h) 0.258; (temperature: 37°C, 24 h) 0.607.
Take `COc1ccc(-c2csc(C)n2)cc1[N+](=O)[O-]`: the “plate-normalized OD600 growth” value is, setting by setting: (temperature: 15°C, 48 h) 0.231; (temperature: 37°C, 24 h) 0.615.
For the molecule `CCc1cc2c(N3CCCCCC3)ncnc2s1`, the “plate-normalized OD600 growth” value turned out to be 0.247 (temperature: 15°C, 48 h) and 0.637 (temperature: 37°C, 24 h).
The corresponding values for `CCC(=O)N1CCN(c2cc(N3CCCC3)c(F)cc2[N+](=O)[O-])CC1` are 0.268 and 0.65.
`Oc1ccccc1CN1CCOCC1`: the “plate-normalized OD600 growth” value was 0.247 (temperature: 15°C, 48 h) and 0.662 (temperature: 37°C, 24 h).
The corresponding values for `CCOc1ccc(-c2ncnn2-c2ccc([N+](=O)[O-])cc2)cc1` are 0.222 and 0.625.
On to `CCN(CC)C(=O)C1CCCN(Cc2sccc2C)C1` (configuration not stated), for which the “plate-normalized OD600 growth” value was 0.257 (temperature: 15°C, 48 h) and 0.636 (temperature: 37°C, 24 h).
Regarding `Cn1c(NCc2ccccc2)cc(=O)n(C)c1=O`, the “plate-normalized OD600 growth” value (temperature: 15°C, 48 h) was 0.258 and the “plate-normalized OD600 growth” value (temperature: 37°C, 24 h) stood at 0.619.
As to `CC1(C)CC1C(=O)Nc1ccc([N+](=O)[O-])cc1Br` (configuration not stated), the “plate-normalized OD600 growth” value stood at 0.29 (temperature: 15°C, 48 h) and 0.615 (temperature: 37°C, 24 h).
As to `CN1C2=NCCCN2c2ccccc21`, the “plate-normalized OD600 growth” value stood at 0.238 (temperature: 15°C, 48 h) and 0.612 (temperature: 37°C, 24 h).
With `Fc1ccc(CN2CCN(c3ccccn3)CC2)cc1Br`, the “plate-normalized OD600 growth” value reads like this: (temperature: 15°C, 48 h) 0.237; (temperature: 37°C, 24 h) 0.585.
In the case of `CCN(c1ccccc1)S(=O)(=O)c1ccc(NC(C)=O)cc1`, the “plate-normalized OD600 growth” value came to 0.265 (temperature: 15°C, 48 h) and 0.628 (temperature: 37°C, 24 h).
Regarding `O=S(=O)(Cc1ccccc1)NCc1cccnc1`, the “plate-normalized OD600 growth” value reads like this: (temperature: 15°C, 48 h) 0.24; (temperature: 37°C, 24 h) 0.619.
As for `COc1ccc(-n2c(C)c([N+](=O)[O-])c3ccc(O)c(CN4CCCCC4)c32)cc1`, the “plate-normalized OD600 growth” value reads like this: (temperature: 15°C, 48 h) 0.238; (temperature: 37°C, 24 h) 0.647.
Regarding `COc1ccccc1/C=C/CN1CCN(c2ccccn2)CC1`, the “plate-normalized OD600 growth” value turned out to be 0.275 (temperature: 15°C, 48 h) and 0.655 (temperature: 37°C, 24 h).
On to `O=C(Nc1cccc([N+](=O)[O-])c1)c1cc(S(=O)(=O)Nc2ccccc2)ccc1Cl`, for which the “plate-normalized OD600 growth” value is 0.256 (temperature: 15°C, 48 h) and 0.621 (temperature: 37°C, 24 h).
Regarding `O=C(NC1CCCCCC1)c1ccc([N+](=O)[O-])cc1`, the “plate-normalized OD600 growth” value reads like this: (temperature: 15°C, 48 h) 0.212; (temperature: 37°C, 24 h) 0.629.
As to `c1cc(CNc2ccc3c(c2)CCC3)ccn1`, the “plate-normalized OD600 growth” value is 0.252 (temperature: 15°C, 48 h) and 0.642 (temperature: 37°C, 24 h).
Take `O=C(Nc1ccc(Oc2ccc(NC(=O)c3cccnc3)cc2)cc1)c1cccnc1`: the “plate-normalized OD600 growth” value runs as follows: (temperature: 15°C, 48 h) 0.27; (temperature: 37°C, 24 h) 0.629.
Consider `CC(=O)NC1CCCc2c1[nH]c1ccc(C)cc21` (configuration not stated), for which the “plate-normalized OD600 growth” value by setting is: (temperature: 15°C, 48 h) 0.238; (temperature: 37°C, 24 h) 0.622.
As for `CC(=O)Nc1ccc(-c2nc3ccc(NC(C)=O)cc3[nH]2)cc1`, the “plate-normalized OD600 growth” value is, setting by setting: (temperature: 15°C, 48 h) 0.243; (temperature: 37°C, 24 h) 0.616.
Turning to `CN1CCN(c2ncnc3sc4c(c23)CCCC4)CC1`, the “plate-normalized OD600 growth” value runs as follows: (temperature: 15°C, 48 h) 0.253; (temperature: 37°C, 24 h) 0.635.
The corresponding values for `CC(CCN1CCCN(C)CC1)c1ccccc1` (configuration not stated) are 0.254 and 0.614.
Taken in the same sequence, the figures for `CCOc1c(/C=C(\C#N)c2nc3ccccc3[nH]2)cccc1OC` were 0.234 and 0.608.
For `O=[N+]([O-])c1ccc(N2CCN(CC(O)COc3ccccc3)CC2)cc1` (configuration not stated), the “plate-normalized OD600 growth” value is 0.237 (temperature: 15°C, 48 h) and 0.623 (temperature: 37°C, 24 h).
The corresponding values for `N#CSCCCOc1ccc(Cl)cc1` are 0.241 and 0.613.
For `CCCCc1c(C(=O)O)cc(C)cc1C(=O)O`, the “plate-normalized OD600 growth” value (temperature: 15°C, 48 h) came to 0.239 and the “plate-normalized OD600 growth” value (temperature: 37°C, 24 h) amounted to 0.631.
Take `C(=C\c1ccccc1)/CN1CCN(C2CCc3ccccc3C2)CC1` (configuration not stated): the “plate-normalized OD600 growth” value is 0.257 (temperature: 15°C, 48 h) and 0.605 (temperature: 37°C, 24 h).
As for `CS(=O)(=O)N1CCN(C/C=C/c2ccccc2)CC1`, the “plate-normalized OD600 growth” value was determined as 0.237 (temperature: 15°C, 48 h) and 0.61 (temperature: 37°C, 24 h).

The values are drawn from the supplement of paper PMC4371806.
